In article PMC7925679:
These are yes or no findings as the source states them, for the method shown. Binding seen in cells or lysates may run through a third protein. Some entries that bind do so weakly or less than the wild type. For some assays here: Sequences can lack the tags named with a protein.

By UniProt entry, the sequences of proteins in these tests, tags left out.
UniProt Q13546: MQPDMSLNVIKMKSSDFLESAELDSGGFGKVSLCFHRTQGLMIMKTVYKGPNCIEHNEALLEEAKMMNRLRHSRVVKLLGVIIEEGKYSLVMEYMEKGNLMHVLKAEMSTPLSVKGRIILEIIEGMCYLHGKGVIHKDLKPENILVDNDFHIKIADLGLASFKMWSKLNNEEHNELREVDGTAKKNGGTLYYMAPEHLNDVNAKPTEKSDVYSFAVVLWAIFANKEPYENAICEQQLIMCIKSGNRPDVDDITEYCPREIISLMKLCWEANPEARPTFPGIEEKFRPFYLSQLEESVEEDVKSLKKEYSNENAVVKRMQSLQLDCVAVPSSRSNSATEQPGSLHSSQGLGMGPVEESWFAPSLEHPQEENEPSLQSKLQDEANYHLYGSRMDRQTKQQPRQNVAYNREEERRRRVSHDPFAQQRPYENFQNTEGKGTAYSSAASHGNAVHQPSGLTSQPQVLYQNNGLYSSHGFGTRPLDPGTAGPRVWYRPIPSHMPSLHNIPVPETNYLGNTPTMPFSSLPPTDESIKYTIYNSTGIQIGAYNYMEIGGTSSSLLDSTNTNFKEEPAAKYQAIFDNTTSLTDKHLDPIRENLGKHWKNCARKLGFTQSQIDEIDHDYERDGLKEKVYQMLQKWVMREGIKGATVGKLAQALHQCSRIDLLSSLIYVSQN
UniProt P42773: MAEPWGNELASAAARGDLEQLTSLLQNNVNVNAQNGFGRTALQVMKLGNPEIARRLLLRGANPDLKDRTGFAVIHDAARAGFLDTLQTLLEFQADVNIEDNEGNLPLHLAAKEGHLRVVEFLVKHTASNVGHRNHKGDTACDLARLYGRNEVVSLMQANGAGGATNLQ

Key:
[1] = biological target: T1, cylindromatosis (CYLD) protein (human (endogenous in HONE1)) (UniProt Q9NQC7); test: co-IP; endogenous proteins; HONE1 and HONE1-EBV cell lysates (IP lysis buffer, 1 mg protein) immunoprecipitated with CYLD antibody (2 ug, overnight, 4 C) on Dynabeads protein A; Western blot
T1 sequence: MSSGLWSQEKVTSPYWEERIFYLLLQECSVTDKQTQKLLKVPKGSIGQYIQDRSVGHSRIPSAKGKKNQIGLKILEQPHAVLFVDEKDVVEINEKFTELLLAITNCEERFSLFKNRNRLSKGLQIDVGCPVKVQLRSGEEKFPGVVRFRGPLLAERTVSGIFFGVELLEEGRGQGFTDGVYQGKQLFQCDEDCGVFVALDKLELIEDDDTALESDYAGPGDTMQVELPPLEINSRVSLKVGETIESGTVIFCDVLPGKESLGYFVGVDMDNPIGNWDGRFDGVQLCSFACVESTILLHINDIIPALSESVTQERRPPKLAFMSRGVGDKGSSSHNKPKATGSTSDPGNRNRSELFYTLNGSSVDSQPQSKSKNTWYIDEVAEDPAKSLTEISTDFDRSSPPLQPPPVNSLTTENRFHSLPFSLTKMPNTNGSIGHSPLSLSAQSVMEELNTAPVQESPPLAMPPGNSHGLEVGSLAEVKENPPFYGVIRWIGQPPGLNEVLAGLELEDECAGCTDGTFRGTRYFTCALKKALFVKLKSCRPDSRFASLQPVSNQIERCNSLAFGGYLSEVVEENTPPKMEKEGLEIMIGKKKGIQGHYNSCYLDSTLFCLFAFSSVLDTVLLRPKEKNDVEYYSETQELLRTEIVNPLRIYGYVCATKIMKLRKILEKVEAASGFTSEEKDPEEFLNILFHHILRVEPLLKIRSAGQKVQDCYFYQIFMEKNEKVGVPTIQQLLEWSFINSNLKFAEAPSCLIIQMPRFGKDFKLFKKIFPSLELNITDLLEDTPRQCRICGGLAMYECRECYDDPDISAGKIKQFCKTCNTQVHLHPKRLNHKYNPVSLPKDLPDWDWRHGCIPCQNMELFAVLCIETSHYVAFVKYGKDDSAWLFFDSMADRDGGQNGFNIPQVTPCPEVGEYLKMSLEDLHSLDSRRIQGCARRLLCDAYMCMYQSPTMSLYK

[2] = biological target: T1, cylindromatosis (CYLD) protein (human (endogenous in HONE1)); test: proximity ligation; in situ PLA (DuoLink In Situ Red, mouse/rabbit) in fixed HONE1 cells with primary antibodies to CYLD and p18
[3] = biological target: T2, Flag-tagged full-length CYLD (FL) (UniProt Q9NQC7); test: co-IP; 293T cells transfected with Flag-CYLD (full length or deletion mutants) and Myc-tagged partner; lysates immunoprecipitated with Flag antibody on Dynabeads protein A; Western blot
T2 sequence: T1 sequence

binding [1] | binding [2] | binding [3] | Substance
binds | – | – | RIP1 (Receptor Interaction protein 1) (from UniProt Q13546 1-671)
binds | binds | – | p18INK4C (from UniProt P42773 1-168)
– | – | binds | Myc-RIP1 (from UniProt Q13546 1-671)
– | – | binds | Myc-tagged full-length p18 (FL) (from UniProt P42773 1-168)
